Test results published in publication PMC11695829, “DSIF factor Spt5 coordinates transcription, maturation and exoribonucleolysis of RNA polymerase II transcripts” (Nature Communications, 2025).
No constants are given. Whether binding was seen depends on the method and setting. In cells and extracts the contact can be indirect. These calls come from enrichment with a bait or labelling near it, and not all partners need be listed. No binding means not detected with the bait. For some of these results: Tags and fused reporters may be left off the sequences shown.

How the values were obtained:
[1] = target: T1, Flag-tagged Spt5 (WT) (S. pombe) (UniProt O13936); test: affinity purification with mass spectrometry; Flag-tagged Spt5 (WT, dis2Δ, T1A or T1E strains) bound to α-Flag M2 agarose from S. pombe lysate; 25 mM Tris pH 7, 100 mM NaCl, 0.5 mM MgCl2, phosphatase inhibitors; untagged strain as mock
T1 sequence: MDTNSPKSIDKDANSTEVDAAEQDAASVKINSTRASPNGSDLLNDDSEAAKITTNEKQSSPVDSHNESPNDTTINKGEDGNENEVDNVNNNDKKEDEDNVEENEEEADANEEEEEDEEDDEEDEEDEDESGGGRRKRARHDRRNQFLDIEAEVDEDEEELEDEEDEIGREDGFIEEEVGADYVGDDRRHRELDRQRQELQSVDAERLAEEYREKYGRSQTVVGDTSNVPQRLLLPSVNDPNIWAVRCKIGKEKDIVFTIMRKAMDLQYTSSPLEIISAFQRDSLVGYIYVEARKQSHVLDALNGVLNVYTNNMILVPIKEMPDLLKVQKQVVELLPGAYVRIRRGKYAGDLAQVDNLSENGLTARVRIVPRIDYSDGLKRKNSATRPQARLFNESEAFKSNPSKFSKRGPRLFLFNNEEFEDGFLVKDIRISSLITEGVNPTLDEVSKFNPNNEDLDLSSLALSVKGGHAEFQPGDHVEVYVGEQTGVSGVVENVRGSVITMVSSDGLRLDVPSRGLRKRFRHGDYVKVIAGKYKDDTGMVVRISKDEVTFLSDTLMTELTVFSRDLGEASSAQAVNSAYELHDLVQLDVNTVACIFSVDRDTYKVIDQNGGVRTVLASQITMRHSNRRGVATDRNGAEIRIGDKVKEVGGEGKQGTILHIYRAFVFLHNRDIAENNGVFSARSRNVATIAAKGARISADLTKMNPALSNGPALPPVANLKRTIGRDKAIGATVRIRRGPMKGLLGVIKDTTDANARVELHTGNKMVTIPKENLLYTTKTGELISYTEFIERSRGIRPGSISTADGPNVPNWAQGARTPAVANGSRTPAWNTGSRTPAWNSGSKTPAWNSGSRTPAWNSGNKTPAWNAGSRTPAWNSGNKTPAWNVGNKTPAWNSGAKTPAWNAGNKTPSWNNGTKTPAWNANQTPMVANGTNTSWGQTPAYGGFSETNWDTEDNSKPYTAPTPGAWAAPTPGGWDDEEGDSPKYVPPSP

[2] = target: Flag-tagged Spt5 T1E (S. pombe) (UniProt O13936); test: as above

Molecule | binding [1] | binding [2]
Rtf1 (S. pombe (endogenous in S. pombe cells)) | no binding | 
RNA-triphosphatase Pct1 (enzyme, UniProt Q9P6Q6 1-303) MDLKGLLHEENELPSIEKRKIDENAVEHDKVERKRTKSVAVPKIEMNFLNKPIVPDTTKVISNFLTHYLITEPVEHVEIEAKLGTLIDLETQNRFEFPVMNETILNPEFNLRTRFESDMTASEHKYLNEFLNQAFRDSQKPGRLPFAYKHTKQVDLFYETEDNSRDKIRVSKNQSDNQVLACVKKRRVADLFLYCPNDAFDIRISISDELPVSMPSGNQQPSLTRLKDRVGYVHQEIKIDLTKTTQNDPVYDTTERHELEVEFGNIADLRDRAQKAKDGMEAPLFRRVQLFMDNVRILRREHS | binds | no binding

The remaining lines, values ahead:

binding [1] | binding [2] | Molecule
binds |  | Xrn2 (endogenous, S. pombe) (enzyme)
binds |  | full-length Rai1 Strep-tagged (natural protein, S. pombe, UniProt O13836 1-352, looked up, source: Rosetta E. coli, purified (StrepTrap HP, Superdex 200)) MLREFSFYDVPPAHVPPVSEPLEIACYSLSRDRELLLDDSKLSYYYPPPLFSDLNTGFPNRFHPPKSDPDPISIVKDVLMTKGIQMNSSFLTWRGLITKIMCAPLDPRNHWETYLVMDPTSGIIMMEERTRSETSYANQDRMCYWGYKFEAISTLPEIWDACSRDQIEQRDNQDVVPDEQYCSIVKINIGKSKLILAGEVDCIWDKKPCSAKESDVHSDDGTIEEDASNAENPNLHYVELKTSKKYPLENYGMRKKLLKYWAQSFLLGIGRIIIGFRDDNGILIEMKELFTHQIPKMLRPYFKPNDWTPNRLLVVLEHALEWIKQTVKQHPPSTEFTLSYTGGSKLVLRQII
binds | no binding | guanylyl-transferase Pce1 (enzyme, UniProt P40997 1-402) MAPSEKDIEEVSVPGVLAPRDDVRVLKTRIAKLLGTSPDTFPGSQPVSFSKKHLQALKEKNYFVCEKSDGIRCLLYMTEHPRYENRPSVYLFDRKMNFYHVEKIFYPVENDKSGKKYHVDTLLDGELVLDIYPGGKKQLRYLVFDCLACDGIVYMSRLLDKRLGIFAKSIQKPLDEYTKTHMRETAIFPFLTSLKKMELGHGILKLFNEVIPRLRHGNDGLIFTCTETPYVSGTDQSLLKWKPKEMNTIDFMLKLEFAQPEEGDIDYSAMPEFQLGVWEGRNMYSFFAFMYVDEKEWEKLKSFNVPLSERIVECYLDDENRWRFLRFRDDKRDANHISTVKSVLQSIEDGVSKEDLLKEMPIIREAYYNRKKPSVTKRKLDETSNDDAPAIKKVAKESEKEI
